Experimental data from the supplement of paper PMC5836539.
± gives the standard deviation of the averaged measurements. Repeats in this data set agree poorly, so a single value says little.

The chains behind the UniProt entries cited, without tags or fusion partners. Where a name states a change or a piece, a line headed by the entry shows the natural chain unless it says otherwise.
UniProt Q9UQ35: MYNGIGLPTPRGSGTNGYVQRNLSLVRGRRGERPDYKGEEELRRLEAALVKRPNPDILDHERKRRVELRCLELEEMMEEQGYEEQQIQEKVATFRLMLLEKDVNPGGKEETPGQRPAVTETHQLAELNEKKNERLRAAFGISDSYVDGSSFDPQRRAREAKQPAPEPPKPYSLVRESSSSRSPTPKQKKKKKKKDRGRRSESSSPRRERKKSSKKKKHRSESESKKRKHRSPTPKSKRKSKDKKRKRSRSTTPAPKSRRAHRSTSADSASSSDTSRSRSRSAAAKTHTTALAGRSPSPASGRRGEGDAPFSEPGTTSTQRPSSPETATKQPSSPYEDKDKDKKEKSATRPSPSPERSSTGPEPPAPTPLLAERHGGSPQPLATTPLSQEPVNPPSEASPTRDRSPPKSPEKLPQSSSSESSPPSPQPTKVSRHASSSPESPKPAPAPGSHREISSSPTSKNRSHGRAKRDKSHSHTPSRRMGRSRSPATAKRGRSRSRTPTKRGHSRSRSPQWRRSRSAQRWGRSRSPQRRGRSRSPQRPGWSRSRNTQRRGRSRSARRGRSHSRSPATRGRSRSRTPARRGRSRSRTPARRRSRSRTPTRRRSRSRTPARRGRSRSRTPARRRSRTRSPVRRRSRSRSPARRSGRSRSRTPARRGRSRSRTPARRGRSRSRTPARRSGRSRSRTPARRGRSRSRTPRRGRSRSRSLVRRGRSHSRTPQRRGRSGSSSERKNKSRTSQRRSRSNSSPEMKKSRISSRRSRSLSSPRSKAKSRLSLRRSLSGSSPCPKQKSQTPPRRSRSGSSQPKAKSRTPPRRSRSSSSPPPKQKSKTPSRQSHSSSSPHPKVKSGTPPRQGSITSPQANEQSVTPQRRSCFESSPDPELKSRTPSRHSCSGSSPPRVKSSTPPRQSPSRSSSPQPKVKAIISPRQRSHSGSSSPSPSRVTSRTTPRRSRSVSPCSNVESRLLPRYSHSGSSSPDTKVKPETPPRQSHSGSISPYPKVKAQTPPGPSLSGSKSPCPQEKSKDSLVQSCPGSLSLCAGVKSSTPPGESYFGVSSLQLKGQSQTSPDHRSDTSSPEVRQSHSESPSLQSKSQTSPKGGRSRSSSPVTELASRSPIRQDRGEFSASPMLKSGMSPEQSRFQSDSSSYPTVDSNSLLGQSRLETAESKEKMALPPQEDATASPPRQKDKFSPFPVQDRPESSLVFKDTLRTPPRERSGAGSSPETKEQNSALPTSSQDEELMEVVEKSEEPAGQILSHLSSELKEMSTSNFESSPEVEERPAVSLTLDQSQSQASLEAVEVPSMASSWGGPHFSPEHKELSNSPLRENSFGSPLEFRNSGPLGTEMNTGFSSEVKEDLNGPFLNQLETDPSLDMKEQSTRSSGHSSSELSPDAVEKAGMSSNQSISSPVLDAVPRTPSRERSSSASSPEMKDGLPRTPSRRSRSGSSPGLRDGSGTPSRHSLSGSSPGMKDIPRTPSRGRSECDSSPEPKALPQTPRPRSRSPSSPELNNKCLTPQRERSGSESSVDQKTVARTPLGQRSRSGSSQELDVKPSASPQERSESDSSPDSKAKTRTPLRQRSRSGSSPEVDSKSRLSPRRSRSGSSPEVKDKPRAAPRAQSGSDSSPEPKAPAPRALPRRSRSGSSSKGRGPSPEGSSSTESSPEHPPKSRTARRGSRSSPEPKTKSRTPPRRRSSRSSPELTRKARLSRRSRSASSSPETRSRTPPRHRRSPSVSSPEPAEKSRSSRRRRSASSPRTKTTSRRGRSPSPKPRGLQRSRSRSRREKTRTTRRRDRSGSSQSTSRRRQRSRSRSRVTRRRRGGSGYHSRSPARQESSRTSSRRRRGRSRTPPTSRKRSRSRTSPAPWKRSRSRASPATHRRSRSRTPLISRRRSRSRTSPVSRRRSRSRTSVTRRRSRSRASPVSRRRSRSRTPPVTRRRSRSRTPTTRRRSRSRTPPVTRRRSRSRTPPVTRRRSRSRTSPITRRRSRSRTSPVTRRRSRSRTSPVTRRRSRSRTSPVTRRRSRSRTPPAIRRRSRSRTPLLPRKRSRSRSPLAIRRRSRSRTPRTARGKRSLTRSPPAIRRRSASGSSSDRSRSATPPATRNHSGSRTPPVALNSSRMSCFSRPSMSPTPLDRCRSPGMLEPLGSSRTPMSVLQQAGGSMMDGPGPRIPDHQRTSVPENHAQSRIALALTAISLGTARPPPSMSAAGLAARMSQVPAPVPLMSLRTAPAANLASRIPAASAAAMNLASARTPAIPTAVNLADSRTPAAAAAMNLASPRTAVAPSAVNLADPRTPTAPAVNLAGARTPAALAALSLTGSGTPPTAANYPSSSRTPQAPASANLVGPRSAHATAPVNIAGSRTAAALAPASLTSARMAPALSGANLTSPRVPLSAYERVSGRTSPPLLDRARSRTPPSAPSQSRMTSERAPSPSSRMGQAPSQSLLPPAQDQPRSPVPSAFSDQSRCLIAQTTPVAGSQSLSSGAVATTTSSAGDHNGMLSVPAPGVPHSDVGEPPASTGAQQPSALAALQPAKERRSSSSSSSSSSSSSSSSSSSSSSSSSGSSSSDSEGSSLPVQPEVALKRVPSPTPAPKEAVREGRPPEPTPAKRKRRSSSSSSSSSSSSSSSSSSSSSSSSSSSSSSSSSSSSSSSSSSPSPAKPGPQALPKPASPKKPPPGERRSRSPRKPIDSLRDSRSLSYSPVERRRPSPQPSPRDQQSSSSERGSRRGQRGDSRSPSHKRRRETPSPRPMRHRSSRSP
UniProt O75691: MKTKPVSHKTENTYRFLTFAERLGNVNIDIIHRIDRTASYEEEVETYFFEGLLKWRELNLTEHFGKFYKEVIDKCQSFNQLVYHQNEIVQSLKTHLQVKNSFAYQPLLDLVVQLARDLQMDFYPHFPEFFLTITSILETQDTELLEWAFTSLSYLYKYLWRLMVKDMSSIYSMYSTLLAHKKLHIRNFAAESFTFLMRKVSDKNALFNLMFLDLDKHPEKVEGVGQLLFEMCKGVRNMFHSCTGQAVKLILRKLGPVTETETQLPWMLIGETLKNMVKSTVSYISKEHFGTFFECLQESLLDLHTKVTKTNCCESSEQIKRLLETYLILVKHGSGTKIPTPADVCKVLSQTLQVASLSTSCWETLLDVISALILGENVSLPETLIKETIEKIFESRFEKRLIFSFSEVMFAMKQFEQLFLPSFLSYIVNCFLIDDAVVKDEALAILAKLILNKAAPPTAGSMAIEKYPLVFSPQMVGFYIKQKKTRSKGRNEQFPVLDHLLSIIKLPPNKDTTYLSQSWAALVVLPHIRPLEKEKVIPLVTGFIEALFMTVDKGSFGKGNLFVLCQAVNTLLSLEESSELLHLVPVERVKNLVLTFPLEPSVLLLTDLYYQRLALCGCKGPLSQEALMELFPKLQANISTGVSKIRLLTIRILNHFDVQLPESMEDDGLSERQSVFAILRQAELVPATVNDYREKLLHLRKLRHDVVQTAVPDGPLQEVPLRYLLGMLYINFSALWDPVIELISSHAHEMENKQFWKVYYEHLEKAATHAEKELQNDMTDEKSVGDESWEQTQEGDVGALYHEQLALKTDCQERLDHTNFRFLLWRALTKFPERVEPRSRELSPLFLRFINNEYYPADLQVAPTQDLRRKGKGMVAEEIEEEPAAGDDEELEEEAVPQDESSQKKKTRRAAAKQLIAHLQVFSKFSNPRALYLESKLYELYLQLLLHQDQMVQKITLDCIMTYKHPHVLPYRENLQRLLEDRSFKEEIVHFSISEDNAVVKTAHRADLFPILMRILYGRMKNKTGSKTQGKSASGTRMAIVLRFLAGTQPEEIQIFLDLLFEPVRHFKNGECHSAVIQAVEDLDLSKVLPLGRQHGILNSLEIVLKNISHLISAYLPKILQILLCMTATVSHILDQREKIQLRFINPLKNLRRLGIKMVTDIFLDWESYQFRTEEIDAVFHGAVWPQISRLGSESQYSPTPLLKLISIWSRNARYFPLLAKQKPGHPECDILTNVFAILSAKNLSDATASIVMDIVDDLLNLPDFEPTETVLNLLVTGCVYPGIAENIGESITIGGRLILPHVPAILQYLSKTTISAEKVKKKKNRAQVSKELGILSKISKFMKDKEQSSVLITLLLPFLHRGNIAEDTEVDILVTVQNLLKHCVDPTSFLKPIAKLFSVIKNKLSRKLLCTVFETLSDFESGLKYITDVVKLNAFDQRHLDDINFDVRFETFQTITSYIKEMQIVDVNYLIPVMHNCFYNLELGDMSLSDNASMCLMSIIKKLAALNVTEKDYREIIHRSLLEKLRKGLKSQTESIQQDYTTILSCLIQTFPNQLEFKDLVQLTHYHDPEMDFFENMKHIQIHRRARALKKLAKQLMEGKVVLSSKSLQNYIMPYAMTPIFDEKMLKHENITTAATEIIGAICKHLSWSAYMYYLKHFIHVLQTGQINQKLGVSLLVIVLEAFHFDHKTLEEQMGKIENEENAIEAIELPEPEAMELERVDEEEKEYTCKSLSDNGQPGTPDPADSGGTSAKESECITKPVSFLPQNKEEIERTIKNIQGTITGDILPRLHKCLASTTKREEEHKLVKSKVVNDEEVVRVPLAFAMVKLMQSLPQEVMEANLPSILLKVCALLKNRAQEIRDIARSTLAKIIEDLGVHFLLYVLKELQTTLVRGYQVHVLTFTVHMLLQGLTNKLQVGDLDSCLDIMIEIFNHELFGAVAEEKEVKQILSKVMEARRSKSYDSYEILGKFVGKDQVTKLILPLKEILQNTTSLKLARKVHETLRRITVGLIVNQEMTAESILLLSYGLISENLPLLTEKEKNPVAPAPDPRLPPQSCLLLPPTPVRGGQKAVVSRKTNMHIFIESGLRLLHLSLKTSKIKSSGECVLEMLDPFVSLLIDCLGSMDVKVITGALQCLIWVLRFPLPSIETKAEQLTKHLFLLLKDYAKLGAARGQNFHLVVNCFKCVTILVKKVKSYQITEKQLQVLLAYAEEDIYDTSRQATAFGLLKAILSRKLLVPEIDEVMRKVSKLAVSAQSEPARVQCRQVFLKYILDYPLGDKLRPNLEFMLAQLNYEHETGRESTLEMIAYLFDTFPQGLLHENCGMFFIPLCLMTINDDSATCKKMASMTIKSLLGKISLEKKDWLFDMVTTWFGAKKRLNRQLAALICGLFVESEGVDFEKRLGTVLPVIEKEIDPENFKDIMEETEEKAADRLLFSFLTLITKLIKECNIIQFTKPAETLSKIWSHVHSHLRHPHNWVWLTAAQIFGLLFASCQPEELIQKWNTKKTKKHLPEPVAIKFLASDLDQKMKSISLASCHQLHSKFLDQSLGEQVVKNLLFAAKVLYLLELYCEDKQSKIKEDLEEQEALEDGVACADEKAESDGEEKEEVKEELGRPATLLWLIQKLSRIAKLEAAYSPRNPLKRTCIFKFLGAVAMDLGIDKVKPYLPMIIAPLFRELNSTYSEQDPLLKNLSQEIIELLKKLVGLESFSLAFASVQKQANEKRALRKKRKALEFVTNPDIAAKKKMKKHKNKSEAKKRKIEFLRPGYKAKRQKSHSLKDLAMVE
UniProt Q9UNF0: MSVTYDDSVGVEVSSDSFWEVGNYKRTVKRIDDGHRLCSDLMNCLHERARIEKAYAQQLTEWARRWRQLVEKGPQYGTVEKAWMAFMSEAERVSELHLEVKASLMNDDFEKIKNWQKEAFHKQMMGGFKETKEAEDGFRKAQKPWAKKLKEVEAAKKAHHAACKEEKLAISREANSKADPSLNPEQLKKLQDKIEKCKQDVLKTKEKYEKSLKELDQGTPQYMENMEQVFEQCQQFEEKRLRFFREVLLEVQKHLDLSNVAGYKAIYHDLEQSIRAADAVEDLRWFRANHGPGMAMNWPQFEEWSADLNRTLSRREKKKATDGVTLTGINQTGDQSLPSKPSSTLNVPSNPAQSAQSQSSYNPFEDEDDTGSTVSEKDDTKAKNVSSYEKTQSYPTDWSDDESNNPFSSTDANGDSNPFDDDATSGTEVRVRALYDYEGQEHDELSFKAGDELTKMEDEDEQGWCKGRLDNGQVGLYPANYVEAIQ
UniProt O43294, whole entry, looked up: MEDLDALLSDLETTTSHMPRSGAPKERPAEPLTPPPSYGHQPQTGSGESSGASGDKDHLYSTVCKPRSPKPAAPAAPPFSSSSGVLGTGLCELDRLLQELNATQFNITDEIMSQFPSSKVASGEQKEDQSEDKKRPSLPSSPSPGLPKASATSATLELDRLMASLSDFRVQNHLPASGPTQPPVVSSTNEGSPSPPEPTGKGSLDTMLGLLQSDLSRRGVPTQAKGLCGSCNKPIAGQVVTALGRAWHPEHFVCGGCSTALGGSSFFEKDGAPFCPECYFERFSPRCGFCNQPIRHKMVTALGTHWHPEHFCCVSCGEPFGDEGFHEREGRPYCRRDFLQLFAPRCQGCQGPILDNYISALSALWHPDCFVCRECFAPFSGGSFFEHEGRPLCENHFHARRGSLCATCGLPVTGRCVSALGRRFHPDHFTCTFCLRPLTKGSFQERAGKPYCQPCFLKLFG

compound: CC[C@@H](C)Nc1cc(C(=O)N[C@H]2C[C@H]3CC[C@@H](C2)N3c2ccc(C(=O)C3CC3)cn2)c(C)cc1C(N)=O [XL888]; assay: phosphopeptide melting temperature shift (XL888 minus DMSO); higher = stabilised by drug treatment; conditions: 100 µM; treatment time 2 h; layout: intact cells; SK-Mel 28
Protocol: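 Phospho-TPP in intact SK-Mel 28 cells treated with 100 uM XL888 or DMSO for 2 h, heated at 10 temperatures (37-67 C) for 3 min, soluble fraction TMT10plex-labelled and TiO2 phospho-enriched. Melting curves were fitted per phosphopeptide; the value is the melting point difference (drug minus vehicle) in each of two biological replicates.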

Target | phosphopeptide melting temperature shift
GIGYF2 phosphosite_593 (phosphosite position: 593) (UniProt Q6Y7W6) | 0.837 ± 0.91 °C
UniProt Q14676-3_phosphosite_453 (phosphosite position: 453) | 4.89 °C
ST13 phosphosite_79 (phosphosite position: 79) (UniProt P50502) | 1.99 ± 0.11 °C
UniProt Q7Z6E9-2_phosphosite_1145 (phosphosite position: 1145) | 1.18 ± 1.1 °C
UniProt Q9UPQ9-1_phosphosite_1322 (phosphosite position: 1322) | 1.83 °C
TP53BP1 phosphosite_1756 (phosphosite position: 1756) (UniProt Q12888) | 2.73 °C
SRRM1 phosphosite_389 (phosphosite position: 389) (UniProt Q8IYB3) | 0.1 °C
AHCTF1 phosphosite_1513 (phosphosite position: 1513) (UniProt Q8WYP5) | 1.54 °C
UniProt Q9NR12-2_phosphosite_180 (phosphosite position: 180) | 0.177 °C
FXR2 phosphosite_601 (phosphosite position: 601) (UniProt P51116) | 2.75 ± 1.3 °C
PRKAR1B phosphosite_83 (phosphosite position: 83) (UniProt P31321) | 1.63 ± 0.78 °C
CCNH phosphosite_315 (phosphosite position: 315) (UniProt P51946) | 3.43 °C
MED1 phosphosite_1482 (phosphosite position: 1482) (UniProt Q15648) | -0.335 ± 0.33 °C
CEP170 phosphosite_501 (phosphosite position: 501) (UniProt Q5SW79) | 0.78 °C
LARP1 phosphosite_225 (phosphosite position: 225) (UniProt Q6PKG0) | 0.203 °C
UniProt Q9H4L5-5_phosphosite_410 (phosphosite position: 410) | 1.16 ± 2.9 °C
UniProt O14497-2_phosphosite_363 (phosphosite position: 363) | -2.28 °C
UniProt Q86YP4-2_phosphosite_100 (phosphosite position: 100) | 1.45 °C
PGM3 phosphosite_64 (phosphosite position: 64) (UniProt O95394) | 1.15 ± 0.43 °C
UniProt Q15149_phosphosite_4389 (phosphosite position: 4389) | -0.449 °C
SRRM2 phosphosite_484 (phosphosite position: 484) (UniProt Q9UQ35) | 0.431 °C
DDX46 phosphosite_804 (phosphosite position: 804) (UniProt Q7L014) | -0.718 ± 0.27 °C

Target | phosphopeptide melting temperature shift
UniProt O00141-4_phosphosite_64 (phosphosite position: 64) | 5.91 °C
LARP1 phosphosite_649 (phosphosite position: 649) (UniProt Q6PKG0) | 3.69 °C
UniProt Q5VZ89-2_phosphosite_208 (phosphosite position: 208) | 1.99 ± 2 °C
PCYT1A phosphosite_315 (phosphosite position: 315) (UniProt P49585) | -0.74 °C
ARHGEF11 phosphosite_1295 (phosphosite position: 1295) (UniProt O15085) | 3.3 °C
SOX13 phosphosite_386 (phosphosite position: 386) (UniProt Q9UN79) | 2.07 °C
UniProt P21359-2_phosphosite_2796 (phosphosite position: 2796) | -0.525 °C
UniProt Q53EL6-2_phosphosite_82 (phosphosite position: 82) | 2.22 °C
UniProt O60341_phosphosite_166 (phosphosite position: 166) | 3.02 °C
SPTBN1 phosphosite_2319 (phosphosite position: 2319) (UniProt Q01082) | 1.49 ± 1.1 °C
UniProt Q641Q2-2_phosphosite_1159 (phosphosite position: 1159) | 0.664 °C
UniProt Q14160-2_phosphosite_423 (phosphosite position: 423) | -1.69 °C
UniProt Q5XUX1-3_phosphosite_18 (phosphosite position: 18) | 2.33 °C
DDX42 phosphosite_111 (phosphosite position: 111) (UniProt Q86XP3) | 0.4 ± 0.64 °C
MATR3 phosphosite_766 (phosphosite position: 766) (UniProt P43243) | 0.8 ± 1.4 °C
UniProt Q9Y618-5_phosphosite_149 (phosphosite position: 149) | 2.59 ± 2.1 °C
HDGF phosphosite_107 (phosphosite position: 107) (UniProt P51858) | 2.8 °C
UTP20 phosphosite_2601 (phosphosite position: 2601) (UniProt O75691) | 0.974 °C
ALDOA phosphosite_39 (phosphosite position: 39) (UniProt P04075) | 0.425 °C
UniProt Q96N67-2_phosphosite_180 (phosphosite position: 180) | 5.38 °C
SRRM2 phosphosite_1762 (phosphosite position: 1762) (UniProt Q9UQ35) | 0.8 °C
PSIP1 phosphosite_129 (phosphosite position: 129) (UniProt O75475) | -0.568 °C

Target | phosphopeptide melting temperature shift
PACSIN2 phosphosite_313 (phosphosite position: 313) (UniProt Q9UNF0) | 4.57 °C
UniProt Q96N67-2_phosphosite_439 (phosphosite position: 439) | 5.5096 ± 1e-05 °C
UniProt O43294-2_phosphosite_120 (phosphosite position: 120) | 0.481 ± 1.9 °C
ACTN4 phosphosite_423 (phosphosite position: 423) (UniProt O43707) | 2.05 °C
UniProt Q7Z6Z7-2_phosphosite_3908 (phosphosite position: 3908) | 0.526 ± 0.57 °C
USP32 phosphosite_1350 (phosphosite position: 1350) (UniProt Q8NFA0) | 0.085 ± 0.22 °C
UniProt Q8WYL5-4_phosphosite_203 (phosphosite position: 203) | 2.21 °C
SLC4A1AP phosphosite_312 (phosphosite position: 312) (UniProt Q9BWU0) | -0.103 ± 0.28 °C
GAPDH phosphosite_83 (phosphosite position: 83) (UniProt P04406) | -1.79 ± 0.38 °C
UniProt O75674-3_phosphosite_246 (phosphosite position: 246) | 1.95 ± 0.99 °C
ATG2B phosphosite_497 (phosphosite position: 497) (UniProt Q96BY7) | 1.22 °C
HSPA4 phosphosite_538 (phosphosite position: 538) (UniProt P34932) | 0.851 ± 1.7 °C
UniProt Q9UEY8-2_phosphosite_645 (phosphosite position: 645) | 2.42 °C
SRRM2 phosphosite_1764 (phosphosite position: 1764) (UniProt Q9UQ35) | 0.8 °C
TRIM28 phosphosite_50 (phosphosite position: 50) (UniProt Q13263) | 1.45 ± 0.77 °C
ZC3HC1 phosphosite_407 (phosphosite position: 407) (UniProt Q86WB0) | -1.54 °C
DYNC1LI1 phosphosite_213 (phosphosite position: 213) (UniProt Q9Y6G9) | 0.691 °C
UniProt P43487-2_phosphosite_14 (phosphosite position: 14) | 3.79 ± 2.1 °C
UniProt Q9UK76-3_phosphosite_85 (phosphosite position: 85) | 1.97 °C
MYBBP1A phosphosite_775 (phosphosite position: 775) (UniProt Q9BQG0) | -0.46 ± 0.38 °C
SPAG9 phosphosite_815 (phosphosite position: 815) (UniProt O60271) | 1.01 °C
UniProt O14974-4_phosphosite_299 (phosphosite position: 299) | 3.64 °C

An excerpt taken from the entries so far, for reference:
Target | phosphopeptide melting temperature shift
SPAG9 phosphosite_815 (phosphosite position: 815) (UniProt O60271) | 1.01 °C
UniProt O14974-4_phosphosite_299 (phosphosite position: 299) | 3.64 °C
